Test results published in publication PMC6954236.

Protein sequences, listed by entry. Tags and fused reporters are not part of them. Lines headed by an entry give the natural chain unless they say otherwise; changes in a name come on top.
UniProt Q96KS0: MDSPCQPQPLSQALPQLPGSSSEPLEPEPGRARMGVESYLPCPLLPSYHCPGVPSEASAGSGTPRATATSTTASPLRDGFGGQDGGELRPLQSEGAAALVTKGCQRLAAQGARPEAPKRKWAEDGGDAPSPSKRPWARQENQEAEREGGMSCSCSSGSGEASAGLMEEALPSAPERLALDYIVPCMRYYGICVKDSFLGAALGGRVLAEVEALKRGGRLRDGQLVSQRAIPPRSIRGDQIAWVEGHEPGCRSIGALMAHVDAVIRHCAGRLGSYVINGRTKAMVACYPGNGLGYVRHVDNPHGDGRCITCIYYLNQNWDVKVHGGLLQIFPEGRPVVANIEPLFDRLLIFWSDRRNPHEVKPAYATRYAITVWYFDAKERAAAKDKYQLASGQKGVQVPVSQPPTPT
UniProt Q9P2J5: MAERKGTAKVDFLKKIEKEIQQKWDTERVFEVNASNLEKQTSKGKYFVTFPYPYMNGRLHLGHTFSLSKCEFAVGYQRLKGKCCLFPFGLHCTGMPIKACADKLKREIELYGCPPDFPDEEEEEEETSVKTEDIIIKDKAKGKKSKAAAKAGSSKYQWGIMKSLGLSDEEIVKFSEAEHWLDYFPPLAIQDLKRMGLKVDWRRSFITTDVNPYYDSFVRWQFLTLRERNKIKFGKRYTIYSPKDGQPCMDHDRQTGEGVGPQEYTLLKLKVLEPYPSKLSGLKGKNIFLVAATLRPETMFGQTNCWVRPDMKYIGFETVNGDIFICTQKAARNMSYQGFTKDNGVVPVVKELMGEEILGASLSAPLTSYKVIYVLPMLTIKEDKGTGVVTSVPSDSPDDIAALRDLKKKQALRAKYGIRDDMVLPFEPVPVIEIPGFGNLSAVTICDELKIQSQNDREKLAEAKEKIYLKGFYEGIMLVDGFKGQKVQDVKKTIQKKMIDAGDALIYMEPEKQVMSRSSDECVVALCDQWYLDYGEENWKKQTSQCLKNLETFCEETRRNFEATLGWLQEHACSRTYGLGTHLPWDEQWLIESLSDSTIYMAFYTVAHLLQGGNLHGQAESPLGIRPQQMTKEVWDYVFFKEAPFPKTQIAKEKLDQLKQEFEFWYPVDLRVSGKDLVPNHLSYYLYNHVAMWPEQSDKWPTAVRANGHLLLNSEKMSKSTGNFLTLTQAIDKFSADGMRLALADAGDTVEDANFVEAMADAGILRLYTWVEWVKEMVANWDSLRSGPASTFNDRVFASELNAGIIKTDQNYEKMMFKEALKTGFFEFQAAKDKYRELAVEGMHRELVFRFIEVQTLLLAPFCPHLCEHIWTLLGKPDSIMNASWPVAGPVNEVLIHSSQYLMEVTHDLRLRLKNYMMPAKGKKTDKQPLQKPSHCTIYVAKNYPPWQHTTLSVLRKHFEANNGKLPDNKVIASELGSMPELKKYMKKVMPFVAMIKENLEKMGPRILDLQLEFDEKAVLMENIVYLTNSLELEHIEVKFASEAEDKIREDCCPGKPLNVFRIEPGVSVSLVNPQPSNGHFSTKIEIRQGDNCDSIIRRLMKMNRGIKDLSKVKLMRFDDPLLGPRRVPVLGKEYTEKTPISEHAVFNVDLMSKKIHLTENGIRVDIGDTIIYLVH

Molecular target: flag-PHD1^MUT (catalytically inactive PHD1 mutant) (UniProt Q96KS0)
Test: co-IP; HEK293T co-transfected with Myc-LRS and flag-PHD1 (WT or MUT) for 72 h; 300 µg lysate protein on ANTI-FLAG M2 Affinity Gel at 4 °C overnight; washed 3 times in lysis buffer with 50 mM NaCl added; blot with anti-myc; cells untreated, treated with DMOG or amino acid starved for 4 h

binding: binds
Substance: myc-LRS (leucyl tRNA synthetase) (from UniProt Q9P2J5 1-1176) (enzyme)

Results are given in words; binding and its absence hold for the method and conditions named. In cells and extracts the contact can be indirect. Binding can be weak; no strength is given.
